Laboratory results from patent publication US20230416942A1 (YALE UNIVERSITY, published 2023).
No constants are given. Whether binding was seen depends on the method and setting. Some binding calls cover weakened binding; strength is not graded here.

The chains behind the UniProt entries cited, without tags or fusion partners. Residues count along the entry.
UniProt P07766, residues 23-126: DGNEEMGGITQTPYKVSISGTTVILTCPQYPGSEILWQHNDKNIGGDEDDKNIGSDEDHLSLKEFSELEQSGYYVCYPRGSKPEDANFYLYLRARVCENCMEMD

T1: CD302 (human, UniProt Q8IX05 23-168, limits assumed)
T1 construct: Recombinant human protein in ELISA
T1 sequence (looked up): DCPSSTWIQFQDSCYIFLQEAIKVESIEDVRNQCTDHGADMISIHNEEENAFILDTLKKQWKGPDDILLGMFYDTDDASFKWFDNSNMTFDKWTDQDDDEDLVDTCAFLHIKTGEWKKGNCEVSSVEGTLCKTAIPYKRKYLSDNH

B1: CD302_Nb33 (Fc fusion)
chain: QVQLQESGGGLVQAGGSLRLSCAASGTISIIFAMGWYRQAPGKEREFVAGIGRGTTTYYADSVKGRFTISRDNAKNTVYLQMNSLKPEDTAVYYCAAHVFYDNVVQRHAYWGQGTQVTVSS
notes: Nanobody expressed and tested as Fc fusion (human IgG1); not shown: human IgG1 Fc (vector pCER243)
B2: CD302_Nb31 (Fc fusion)
chain: QVQLQESGGGLVQAGGSLRLSCAASGTIFKSAGMGWYRQAPGKEREFVAGIAPGAITYYADSVKGRFTISRDNAKNTVYLQMNSLKPEDTAVYYCAALVADGRPYRYWGQGTQVTVSS
notes: as for B1
B3: CD302_Nb35 (Fc fusion)
chain: QVQLQESGGGLVQAGGSLRLSCAASGTISRVFVMGWYRQAPGKERELVAGIGGGTSTYYADSVKGRFTISRDNAKNTVYLQMNSLKPEDTAVYYCAAILSDRVLFRYWGQGTQVTVSS
notes: as for B1
B4: CD302_Nb26 (Fc fusion)
chain: QVQLQESGGGLVQAGGSLRLSCAASGNISFIGAMGWYRQAPGKEREFVAGINVGTNTYYADSVKGRFTISRDNAKNTVYLQMNSLKPEDTAVYYCAAYVFVSRIDLRYLVYWGQGTQVTVSS
notes: as for B1
B5: CD302_Nb32 (Fc fusion)
chain: QVQLQESGGGLVQAGGSLRLSCAASGTIFPDSSMGWYRQAPGKEREFVAGITTGANTYYADSVKGRFTISRDNAKNTVYLQMNSLKPEDTAVYYCAAYHVDRAVFRYWGQGTQVTVSS
notes: as for B1
B6: CD302_Nb30 (Fc fusion)
chain: QVQLQESGGGLVQAGGSLRLSCAASGSISLATGMGWYRQAPGKEREFVAGISVGTSTYYADSVKGRFTISRDNAKNTVYLQMNSLKPEDTAVYYCAAIAWHPSGARSYLRYWGQGTQVTVSS
notes: as for B1
B7: CD302_Nb28 (Fc fusion)
chain: QVQLQESGGGLVQAGGSLRLSCAASGSISGVSGMGWYRQAPGKEREFVAGITTGTSTYYADSVKGRFTISRDNAKNTVYLQMNSLKPEDTAVYYCAAYANYVPSSRLYLRYWGQGTQVTVSS
notes: as for B1
B8: CD3E_Nb2.80 (Fc fusion)
chain: QVQLQESGGGLVQAGGSLRLSCAASGNISRRYVMGWYRQAPGKEREFVAGISGGSSTYYADSVKGRFTISRDNAKNTVYLQMNSLKPEDTAVYYCAVLISGNTPNAISHYYWGQGTQVTVSS
notes: as for B1
B9: CD3E_Nb2.79 (Fc fusion)
chain: QVQLQESGGGLVQAGGSLRLSCAASGTISPWRVMGWYRQAPGKEREFVAGITPGTTTYYADSVKGRFTISRDNAKNTVYLQMNSLKPEDTAVYYCAVSAGASTPARYRLVYWGQGTQVTVSS
notes: as for B1
B10: CD3E_Nb2.74 (Fc fusion)
chain: QVQLQESGGGLVQAGGSLRLSCAASGTIFYASVMGWYRQAPGKEREFVAGITPGGSTNYADSVKGRFTISRDNAKNTVYLQMNSLKPEDTAVYYCAVYYRYSEGRIGGHAYWGQGTQVTVSS
notes: as for B1
B11: CD3E_Nb2.76 (Fc fusion)
chain: QVQLQESGGGLVQAGGSLRLSCAASGNIFGNVVMGWYRQAPGKEREFVAGINNGGSTNYADSVKGRFTISRDNAKNTVYLQMNSLKPEDTAVYYCAVYYYYLTYHLYWGQGTQVTVSS
notes: as for B1
B12: CD3E_Nb2.77 (Fc fusion)
chain: QVQLQESGGGLVQAGGSLRLSCAASGSISPVAVMGWYRQAPGKEREFVAAINYGANTYYADSVKGRFTISRDNAKNTVYLQMNSLKPEDTAVYYCAAATYAPYQRSGKLVYWGQGTQVTVSS
notes: as for B1
B13: CD3E_Nb2.73 (Fc fusion)
chain: QVQLQESGGGLVQAGGSLRLSCAASGNISDITVMGWYRQAPGKEREFVAGINYGGSTNYADSVKGRFTISRDNAKNTVYLQMNSLKPEDTAVYYCAARYRYRYSAREFHDYWGQGTQVTVSS
notes: as for B1

The binders below were run against T1, CD302 (assay: REAP, yeast-displayed human antigen library).

Row | binding | Binder
1 | binds | B1
2 | binds | B2
3 | binds | B3
4 | binds | B4
5 | binds | B5
6 | binds | B6
7 | binds | B7

Each binder was assayed against T2, CD3E (human, UniProt P07766 23-126) (assay: REAP, yeast-displayed human antigen library).
T2 construct: Recombinant human protein in ELISA

Row | binding | Binder
8 | binds | B8
9 | binds | B9
10 | binds | B10
11 | binds | B11
12 | binds | B12
13 | binds | B13
